In PMC7819943, “Rice protein-binding microarrays: a tool to detect cis-acting elements near promoter regions in rice”:
This is one part of the list.

What follows are sequences tested against T1, OsSMF1 (Oryza sativa, UniProt Q6ZLB0 1-436) (assay: protein-binding microarray (RPBM); PBS, 2% BSA, 51.3 ng/ul salmon testes DNA, 50 uM zinc acetate, 200 nM TF, 25 C, 1 h; high values mean tight binding). Conditions: protein: recombinant; tags: N-terminal polyhistidine and DsRed monomer fusion (pET32a); chain copies: 2; label: CyDye5-dUTP incorporated in the synthesized complementary strand; 3' TTTTT single-stranded linker to array surface; dsDNA, one strand shown.
T1 sequence: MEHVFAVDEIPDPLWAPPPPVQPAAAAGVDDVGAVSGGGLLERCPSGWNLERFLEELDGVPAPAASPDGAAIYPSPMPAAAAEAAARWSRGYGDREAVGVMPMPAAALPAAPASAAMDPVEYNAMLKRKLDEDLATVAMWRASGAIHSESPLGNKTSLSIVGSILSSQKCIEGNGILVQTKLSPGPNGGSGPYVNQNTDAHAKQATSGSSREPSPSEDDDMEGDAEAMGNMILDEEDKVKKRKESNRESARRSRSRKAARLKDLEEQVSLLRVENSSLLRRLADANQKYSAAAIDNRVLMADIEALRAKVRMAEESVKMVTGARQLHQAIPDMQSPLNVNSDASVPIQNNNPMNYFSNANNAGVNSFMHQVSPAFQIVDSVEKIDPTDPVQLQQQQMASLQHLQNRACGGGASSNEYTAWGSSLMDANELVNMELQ
Summary of the method: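 Ni–NTA purification followed expression in E. coli BL21-CodonPlus of transcription factors fused N-terminally to a polyhistidine tag and DsRed. At 200 nM in PBS with 2% BSA, salmon testes DNA and 50 µM zinc acetate, the protein was incubated for 1 h at 25 °C with a custom Agilent array that had been primer-extended with Cy5-dUTP and blocked with 2% BSA. After washing, the array was read on an Axon 4000B scanner. The binding signal is per-feature fluorescence intensity in arbitrary units.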

Row | Sequence | binding signal
1 | AAAATCTTTAATTGTCATGAGTTCAAACAGTACAATAGATCGGAGTCACCTAGTGCAG | 10200 fluorescence intensity (a.u.)
2 | TAAAGTTTTGGGATGGGATGTAAACAGGGCAAAGTCAAACCGGAGTCACCTAGTGCAG | 3340 fluorescence intensity (a.u.)
3 | GGCATGTTACTCTGTTCCATCATGATTGGACCAAAGAAATCGGAGTCACCTAGTGCAG | 4020 fluorescence intensity (a.u.)
4 | TGCCGGGGATTGCTGCGGATAGGTGCACGTGCTGCCGCCGCGGAGTCACCTAGTGCAG | 3700 fluorescence intensity (a.u.)
5 | AATGCTAACCGGCTAAGAGGAGGTGGACTGTTGGTCTATACGGAGTCACCTAGTGCAG | 3970 fluorescence intensity (a.u.)
6 | TGCTATGATGGAGTAATGGTTGAGTCATTGGGCAAAAGCTCGGAGTCACCTAGTGCAG | 6460 fluorescence intensity (a.u.)
7 | CGTGGCAGAGGACGCGTGGACGCTCCGCGATGATGACCCTCGGAGTCACCTAGTGCAG | 3390 fluorescence intensity (a.u.)
8 | ACAAATAATCTTGTATCAACAGCTTGTCACGAGATCATTTCGGAGTCACCTAGTGCAG | 3330 fluorescence intensity (a.u.)
9 | GTCGCACCGACTAGACTACGCCACTCGATTTGACGTCGGCCGGAGTCACCTAGTGCAG | 4090 fluorescence intensity (a.u.)
10 | ATGCTACACTCTGCTTACTACTTACAGTTGCTGACCGTAGCGGAGTCACCTAGTGCAG | 4220 fluorescence intensity (a.u.)
11 | TACTTGTCAGGCACTGAATGTCTGAACTCTGAAACTCTCTCGGAGTCACCTAGTGCAG | 3240 fluorescence intensity (a.u.)
12 | ATTATCGTCCAGATACGAAGCCCCACGTCATCCTGCCCATCGGAGTCACCTAGTGCAG | 15200 fluorescence intensity (a.u.)
13 | GGCGGCCGCCACGCTGGACGTACGGTCGTACTGGACCAGCCGGAGTCACCTAGTGCAG | 6800 fluorescence intensity (a.u.)
14 | TATCACTGTAGTTGCATGCTAAGATCCAAATGCCACATACCGGAGTCACCTAGTGCAG | 3530 fluorescence intensity (a.u.)
15 | TGCGGGATGGCTGGTTGGTGTGCGTGTGCTTCGGTGCGTTCGGAGTCACCTAGTGCAG | 3620 fluorescence intensity (a.u.)
16 | GAGAGCGAGAGGCCACCTGTCGCCGTGCCGCGTCGGCAAGCGGAGTCACCTAGTGCAG | 8060 fluorescence intensity (a.u.)
17 | GGAGTCCCTTGCCGAGGAGATGACGATGGCTAGCGGTTGTCGGAGTCACCTAGTGCAG | 4130 fluorescence intensity (a.u.)
18 | GAAAGAAAATACGTGCCACCGCATCTATAAATGGACAAGCCGGAGTCACCTAGTGCAG | 3800 fluorescence intensity (a.u.)
19 | AGAATCCAGAGTAACAGTGTCACATCCTGATTTTCGTTTTCGGAGTCACCTAGTGCAG | 3600 fluorescence intensity (a.u.)
20 | AATTTTCATGCCGTCACATCGAATATTTGGACACATGCATCGGAGTCACCTAGTGCAG | 4390 fluorescence intensity (a.u.)
21 | CACATTCCGTCCTGCTACCGTCACGTCTCCATAAAGCCATCGGAGTCACCTAGTGCAG | 3190 fluorescence intensity (a.u.)

Row | Sequence | binding signal
22 | GTATTATATTATTAATTAATCGCCGTCACCTCGTCGCCATCGGAGTCACCTAGTGCAG | 3760 fluorescence intensity (a.u.)
23 | ATCTCGGATACAAAATAAATGTACAAGGCCACACATCATGCGGAGTCACCTAGTGCAG | 4060 fluorescence intensity (a.u.)
24 | GGATAGCATCATAGCAGATGTTGGCGTCTCTGTTCACAAACGGAGTCACCTAGTGCAG | 3300 fluorescence intensity (a.u.)
25 | GGAACACCGTCACATAGGTGCCAAGTCAGTAAAACCTCCCCGGAGTCACCTAGTGCAG | 6490 fluorescence intensity (a.u.)
26 | GGCCATAGGCTCAAGCGCACGTCAGTTGCCATAAATTGGCCGGAGTCACCTAGTGCAG | 3650 fluorescence intensity (a.u.)
27 | GATGACGAACTCGCCGCGGCCGGTGTACTCGACGTGGCCGCGGAGTCACCTAGTGCAG | 4310 fluorescence intensity (a.u.)
28 | CTACTCTTGCATACACAACACAACTACTCCCAAGTCCCCACGGAGTCACCTAGTGCAG | 20400 fluorescence intensity (a.u.)
29 | GGAATAATGATTAATCGATGACAGTGGCAAAAGCTATCGGCGGAGTCACCTAGTGCAG | 3670 fluorescence intensity (a.u.)
30 | ATCGCTGTCCAGTTTCGCGCCACGTGGCAATTGGCAAAGACGGAGTCACCTAGTGCAG | 8470 fluorescence intensity (a.u.)
31 | TTGAGCAGCCTCCCTTCCCCGGCGAGCAGCCCCGCCGCCGCGGAGTCACCTAGTGCAG | 3720 fluorescence intensity (a.u.)
32 | CGAGGCCGCGGCCGCTGCTCAGTTCAGGCTCAGCTCGAGGCGGAGTCACCTAGTGCAG | 3420 fluorescence intensity (a.u.)
33 | TCGCTTGAATCTACGAGCATTTCGGTATCCTCCCCAAATTCGGAGTCACCTAGTGCAG | 3220 fluorescence intensity (a.u.)
34 | CGTGTTATACGTGTATGGCAAATTAGGTAACAGATTAATGCGGAGTCACCTAGTGCAG | 3820 fluorescence intensity (a.u.)
35 | CGTATTTGATCCTAGTCAGCCACCCCTGCTTCCTTCTTCTCGGAGTCACCTAGTGCAG | 12100 fluorescence intensity (a.u.)
36 | TTCTTTCCGTGATTGGGGCTCGATGCGATGTAGTCTAGTGCGGAGTCACCTAGTGCAG | 3170 fluorescence intensity (a.u.)
37 | GAATTAACAGTATGTAATACAGTACTACGTGTCTCCCACACGGAGTCACCTAGTGCAG | 4770 fluorescence intensity (a.u.)
38 | CCAATTAATCAGGAGTCAATGACTCGCCTCATTTTACCTTCGGAGTCACCTAGTGCAG | 3320 fluorescence intensity (a.u.)
39 | ATTATCATCGTTGTAACTTCATCGTTGTACCTTAGCATAACGGAGTCACCTAGTGCAG | 14600 fluorescence intensity (a.u.)
40 | GCGTGTCCTCGGTGGATGTAGGTTTTGGTGGAAAGGAGGGCGGAGTCACCTAGTGCAG | 3150 fluorescence intensity (a.u.)
41 | GACGGCGACGGCCGCCCCGTCGGCGCGGTGTCGCTGGCGCCGGAGTCACCTAGTGCAG | 3510 fluorescence intensity (a.u.)
42 | GCAAATAGCCCAACAAAACTGACGAGGAACATGAACCCGACGGAGTCACCTAGTGCAG | 3440 fluorescence intensity (a.u.)

No new results follow: an excerpt of the list.
Row | Sequence | binding signal
23 | ATCTCGGATACAAAATAAATGTACAAGGCCACACATCATGCGGAGTCACCTAGTGCAG | 4060 fluorescence intensity (a.u.)
24 | GGATAGCATCATAGCAGATGTTGGCGTCTCTGTTCACAAACGGAGTCACCTAGTGCAG | 3300 fluorescence intensity (a.u.)
